The experiment has as its target p25, from mouse brain tissue (mouse) (UniProt P61809). The experiment can be described thus: interaction assay of FIG. 4 (method not described).

By UniProt entry, the sequences of proteins in these tests, tags left out. Residues count along the entry.
UniProt P61809, residues 99-307: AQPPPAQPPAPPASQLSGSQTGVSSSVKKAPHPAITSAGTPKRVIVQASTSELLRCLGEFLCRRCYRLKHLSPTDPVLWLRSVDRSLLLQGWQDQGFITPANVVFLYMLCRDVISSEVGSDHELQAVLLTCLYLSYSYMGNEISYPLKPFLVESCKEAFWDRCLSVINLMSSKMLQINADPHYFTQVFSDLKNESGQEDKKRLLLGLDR

These are yes or no findings as the source states them, for the method shown. Some entries that bind do so weakly or less than the wild type.

In the case of ARAFGIPVRCYS [CDK5 inhibitory (CDK5i) peptide], the binding result is recorded as “binds”.

The values above are taken from patent US20190085029A1.
